These results are taken from US11793880B2 (Seagen Inc., priority 2015, dated 2023).

The data set can be described thus: general procedure: solution-phase peptide synthesis; HATU/DIPEA. As to conditions: late stage modification step.
In the case of “(2R)-2-(((2S,3S)-1-(((1R,3R)-1-acetoxy-1-(4-(((2R,4S)-4-carboxy-1-phenylpentan-2-yl)carbamoyl)thiazol-2-yl)-4-methylpentan-3-yl)(methyl)amino)-3-methyl-1-oxopentan-2-yl)carbamoyl)-1-(4-((S)-2-((S)-2-((S)-3-amino-24 (2,5-dioxo-2,5-dihydro-1H-pyrrol-1-yl)propanamido)-3-methylbutanamido)-4-carboxybutanamido)benzyl)-1-methylpiperidin-1-ium”, the step yield is recorded as 93%.

For the substance “(2R)-1-(3-((S)-44-((S)-3-amino-2-(2,5-dioxo-2,5-dihydro-1H-pyrrol-1-yl)propanamido)-38,45-dioxo-2,5,8,11,14,17,20,23,26,29,32,35-dodecaoxa-39,46-diazanonatetracontanamido)-4-(((2S,3R,4S,5S,6S)-6-carboxy-3,4,5-trihydroxytetrahydro-2H-pyran-2-yl)oxy)benzyl)-2-(((2S,3S)-1-(((1R,3R)-1 (4-(((2R,4S)-4-carboxy-1-phenylpentan-2-yl)carbamoyl)thiazol-2-yl)-4-methyl-1-propoxypentan-3-yl)(methyl)amino)-3-methyl-1-oxopentan-2-yl)carbamoyl)-1-methylpiperidin-1-ium”, the step yield turned out to be 92%.

“(2R)-2-(((2S,3S)-1-(((1R,3R)-1-acetoxy-1-(4-(((2R,4S)-4-carboxy-1-phenylpentan-2-yl)carbamoyl)thiazol-2-yl)-4-methylpentan-3-yl)(methyl)amino)-3-methyl-1-oxopentan-2-yl)carbamoyl)-1-(4-((44S,47S,50S)-44-((S)-3-amino-2-(2,5-dioxo-2,5-dihydro-1H-pyrrol-1-yl)propanamido)-50-(2-carboxyethyl)-47-isopropyl-38,45,48-trioxo-2,5,8,11,14,17,20,23,26,29,32,35-dodecaoxa-39,46,49-triazahenpentacontanamido)benzyl)-1-methylpiperidin-1-ium” came in with a step yield of 70%.

For the substance “(2R)-1-(3-((S)-44-((S)-3-amino-2-(2,5-dioxo-2,5-dihydro-1H-pyrrol-1-yl)propanamido)-38,45-dioxo-2,5,8,11,14,17,20,23,26,29,32,35-dodecaoxa-39,46-diazanonatetracontanamido)-4-(((2S,3R,4S,5S,6S)-6-carboxy-3,4,5-trihydroxytetrahydro-2H-pyran-2-yl)oxy)benzyl)-2-(((2S,3S)-1-(((1R,3R)-1-(4-(((2R,4S)-4-carboxy-1-phenylpentan-2-yl)carbamoyl)thiazol-2-yl)-1-ethoxy-4-methylpentan-3-yl)(methyl)amino)-3-methyl-1-oxopentan-2-yl)carbamoyl)-1-methylpiperidin-1-ium”, the step yield amounted to 83%.
